PubChem BioAssay AID504784 | Drosophila RNAi Screening Center | 2011
The deposit covers about 17,000 reagents; below is a random part of those with a known target gene and a result. 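Each column is one replicate's B-score; the combined score over replicates was not deposited, so single values may mislead.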 Names joined by + are all predicted targets of the reagent.

- Test: 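Genome-wide knock-down for genes giving too much or too little stored lipid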 (primary screen)
- System: Drosophila Kc167 embryonic cells
- Reagents: long dsRNA against Drosophila genes, about 250 ng dsRNA per well
- Timing: 4 days
- Challenge: cells fed 400 µM oleic acid bound to BSA
- Measurement: 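Cells imaged and segmented; ratio of lipid droplet area to nuclear area, log-transformed, then normalised as a B-score over the screen; higher means more stored lipid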
- Direction: droplet/nuclear area B-score: higher = more stored lipid (overstorage)

| gene knocked down | amplicon | droplet/nuclear area B-score, replicate 1 | droplet/nuclear area B-score, replicate 2 | droplet/nuclear area B-score, replicate 3 |
| --- | --- | --- | --- | --- |
| kipf | DRSC15446 | -0.196 | 0.00634 | 1.11 |
| kipf | DRSC22871 | -1.17 | -1.22 | – |
| Cndp2 | DRSC04873 | 0.00499 | -0.977 | – |
| velo | DRSC08841 | -0.873 | -1.32 | – |
| velo | DRSC09698 | 3.24 | 0.0507 | – |
| CG31900 (retired record) | DRSC21835 | 0.619 | 1.19 | – |
| CG17784 | DRSC15268 | -0.543 | -3.69 | – |
| SsRbeta | DRSC11290 | 0.56 | -2.67 | 0.939 |
| mei-W68 | DRSC07649 | 0.0162 | -0.854 | – |
| CG8564 | DRSC10997 | -0.146 | -0.888 | – |
| CG2278 | DRSC18226 | 0.676 | -0.165 | – |
| eIF4E3 | DRSC10952 | 5.87 | 0.969 | – |
| smp-30 | DRSC17059 | -0.737 | -0.3 | – |
| CG42327 | DRSC14936 | 1.29 | 1.6 | – |
| CG42327 | DRSC14937 | 0.773 | 1.65 | – |
| CG42327 | DRSC23337 | 0.775 | -1.13 | – |
| nonA | DRSC20357 | -0.311 | 1.12 | – |
| CG32087 | DRSC10806 | 0.0582 | 1.76 | – |
| Cpr5C | DRSC18340 | -0.681 | 0.619 | 0.648 |
| CG13737 | DRSC10064 | 0.0698 | 1.51 | – |
| CG12689 | DRSC17879 | 0.162 | -0.565 | – |
| CG3842 | DRSC18326 | -0.948 | -0.222 | – |
| Vhl | DRSC07716 | 2.61 | -0.294 | – |
| Rep | DRSC07526 | 1.63 | 0.367 | – |
| scaf | DRSC04849 | 0.00976 | -0.313 | – |
| CG6978 | DRSC18409 | 1.26 | -1.86 | – |
| CG14657 | DRSC12219 | -1.23 | -1.9 | – |
| CG14657 | DRSC12243 | -2.76 | 0.267 | – |
| NANS | DRSC15743 | -0.385 | -0.401 | – |
| CG33992 (retired record) + CG43755 | DRSC00012 | 0.0777 | 0.429 | – |
| CG31908 | DRSC21864 | -0.841 | 0.601 | – |
| CG31908 | DRSC23243 | 0.0739 | -4.36 | – |
| CG30392 | DRSC22341 | 4.07 | 0.0119 | – |
| Ilp1 | DRSC10174 | 0.516 | 1.01 | – |
| Or42b | DRSC04913 | 0.00966 | -1.69 | – |
| Ir94a | DRSC13538 | -0.425 | -0.167 | – |
| AsnRS-m | DRSC07010 | -0.575 | 0.869 | – |
| CG12985 | DRSC19505 | -0.919 | -0.0273 | – |
| HipHop | DRSC10734 | 1.58 | 1.48 | -0.848 |
| CG33108 | DRSC21613 | 0.427 | -0.682 | – |
| CG15211 | DRSC19657 | 0.0271 | -0.838 | -0.00928 |
| CG3106 | DRSC18279 | -0.525 | 1.86 | -1.03 |
| CG6290 | DRSC19979 | 0.67 | 0.0552 | – |
| Rh5 | DRSC03412 | -0.0318 | -0.948 | – |
| Ubc10 | DRSC07568 | 2.75 | -2.57 | – |
| CG10943 | DRSC09805 | -1.1 | 0.354 | – |
| Cka | DRSC03476 | 0.229 | 0.695 | – |
| Cka | DRSC22858 | 0.0157 | -1 | – |
| Idgf1 | DRSC03349 | 0.0808 | -0.523 | – |
| dsd | DRSC13829 | -0.781 | 1.81 | – |
| dsd | DRSC15850 | -1.84 | – | – |
| Dscam2 | DRSC08869 | 1.7 | -0.372 | – |
| Dscam2 | DRSC10198 | -1.4 | 0.67 | – |
| Dscam2 | DRSC11018 | 0.0647 | -0.704 | – |
| Dscam2 | DRSC11019 | -0.215 | 0.118 | – |
| Dscam2 | DRSC22526 | 1.9 | 2.92 | – |

Entries listed so far whose target name begins with I or i:
| gene knocked down | amplicon | droplet/nuclear area B-score, replicate 1 | droplet/nuclear area B-score, replicate 2 | droplet/nuclear area B-score, replicate 3 |
| --- | --- | --- | --- | --- |
| Ilp1 | DRSC10174 | 0.516 | 1.01 | – |
| Ir94a | DRSC13538 | -0.425 | -0.167 | – |
| Idgf1 | DRSC03349 | 0.0808 | -0.523 | – |
